Measurements from US20080235828A1 (University of Manitoba, priority 2004, published 2008).
No constants are given. Whether binding was seen depends on the method and setting. Some results given as binding are weak or reduced against the parent protein; the word gives no strength. Tags and fused reporters may be left off the sequences shown.

Assays:
[1] = target: T1, GST:FCA-WW fusion protein (3' end of FCA gamma possessing the WW domain, fused with GST) (Arabidopsis) (UniProt O04425); assay: GST:FCA-WW-FY complex on resin, dual 35S/3H counting
T1 sequence (looked up): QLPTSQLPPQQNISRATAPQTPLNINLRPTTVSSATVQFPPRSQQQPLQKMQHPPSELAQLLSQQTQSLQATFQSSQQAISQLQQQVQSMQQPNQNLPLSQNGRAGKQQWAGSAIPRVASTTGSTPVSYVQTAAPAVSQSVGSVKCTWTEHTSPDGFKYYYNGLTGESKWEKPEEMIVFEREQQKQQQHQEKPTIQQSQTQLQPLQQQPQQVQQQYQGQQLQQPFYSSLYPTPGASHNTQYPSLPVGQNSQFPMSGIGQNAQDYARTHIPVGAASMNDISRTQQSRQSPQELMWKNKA

[2] = target: T1, GST:FCA-WW fusion protein (3' end of FCA gamma possessing the WW domain, fused with GST) (Arabidopsis); assay: GST pull-down of [35S]-FY by GST:FCA, SDS-PAGE and autoradiography

binding [1]: binds
binding [2]: binds
B1: FY protein, in vitro translated and labeled with [35S]-methionine (protein, UniProt Q6NLV4 1-647, looked up)
chain: MYAGGDMHRGSQMPQPPMMRQSSASSTNINPDYHHPSGPFDPNVDSFGAKRMRKHTQRRAVDYTSTVVRYIQARTWQRDSRDRTTLQPTPAAAVDMLPTVAYSDNPSTSFAAKFVHASLNKNRCSINRVLWTPSGRRLITGSQSGEFTLWNGQSFNFEMILQAHDQPIRSMVWSHNENYMVSGDDGGTLKYWQNNMNNVKANKTAHKESIRDLSFCKTDLKFCSCSDDTTVKVWDFTKCVDESSLTGHGWDVKSVDWHPTKSLLVSGGKDQLVKLWDTRSGRELCSLHGHKNIVLSVKWNQNGNWLLTASKDQIIKLYDIRTMKELQSFRGHTKDVTSLAWHPCHEEYFVSGSSDGSICHWIVGHENPQIEIPNAHDNSVWDLAWHPIGYLLCSGSNDHTTKFWCRNRPADNPRDVLMQNQGYNEQGFGRQPDNFQPSEASPIPGAFVPGLTRNEGTIPGIGIAMPFDASSQGDHKQPLPGSMALGAPPLPPGPHPSLLGSGQQQGYQQQQQHQGHPQQMLPMPNMPHHQLPPSSHMPLHPHHLPRPMQMPPHGHMPPPSMPMSHQMPGSMGMQGGMNPQMSQSHFMGAPSGVFQGQPNSGGPQMYPQGRGGFNRPQMIPGYNNPFQQQQQPPLPPGPPPNNNQQHQ
modifications: [35S]-methionine label
